The test system of this data set is Crude myelin suspension (protein and lipid mixture) (Mus musculus). As to the kind of experiment: pull-down. The conditions noted are these: centrifugal sedimentation, PBS, Mg, 37 C 3 h, protein in an extract, label: 5'-fluorescein, single-stranded DNA.

The exact form of at least one protein or probe is not confirmed. At least one result comes from cells or an extract, where the contact may be indirect. A negative result means that nothing was seen under these conditions.

Results on 3 sequences are retold here after patent US20140148501, “DNA APTAMERS FOR PROMOTING REMYELINATION” (MAYO FOUNDATION FOR MEDICAL EDUCATION AND RESEARCH, published 2014).

On to “AAAGAACAAAAAGGATAAAGGGGGAGACGGGGGGAACATGGGG [3060]”, for which the binding result was “no binding”. “GGGTCGGCGGGTGGGGTGGGAGGTGGTCTTGTCTCTGGGT [3064]”: the binding result (crude mixture, no affinity estimate) is “binds”. In the case of “TTTTTTTTTTTTTTTTTTTTTTTTTTTTTTTTTTTTTTTT [3202 (dT40)]”, the binding result was “no binding”.
